The list is a part of this screen's results and no random one: it gathers tests that were run many times, whatever their T/C, doses with no T/C, and many T/C values between a quarter and a half above the control. Further doses and runs are listed elsewhere. T/C is the treated group as % of the vehicle group. Some entries give survivors of the animals treated and no T/C: the source holds a T/C of zero for them, seemingly a mark for toxic or unscored doses. Survivors were counted at the toxicity check, usually on the fifth day, unless a day is given; later deaths do not show. Schedules are NCI's codes, read here as Q, the interval in days (D) or hours (H), X, the number of doses. For survival time, this PubChem deposit counts one and a half times the control or more as active, and values a quarter to a half above the control carry no call in these data; other NCI protocols may use other cut-offs. Some entries were tested several times; their values stand side by side, smallest first. Some T/C values are followed by the survivors on the day toxicity was checked, most often the fifth; without a count, all were alive then.
Tested on: L1210 leukemia ip in BDF1 mice, survival T/C
Assay: NCI In Vivo Anticancer Drug Screen. Data for tumor model L1210 Leukemia (intraperitoneal) in B6D2F1 (BDF1) mice
Settings: T/C endpoint: mean survival time, higher T/C = longer survival

For `CC[n+]1ccc(Nc2ccc(NC(=O)c3ccc(Nc4cc[n+](CC)c5ccc([N+](=O)[O-])cc45)cc3)cc2)cc1`, the T/C (dose: 6.25 mg/kg/injection, schedule: Q01DX009 (ip), vehicle: saline sonified) was 138 % of control, the T/C (dose: 7.0 mg/kg/injection, schedule: Q01DX009 (ip), vehicle: Klucel (hydroxypropylcellulose) (HPC)) was 130 % of control and the T/C (dose: 11.0 mg/kg/injection, schedule: Q01DX009 (ip), vehicle: Klucel (hydroxypropylcellulose) (HPC)) was 130 and 132 % of control. The T/C (dose: 12.5 mg/kg/injection, schedule: Q01DX009 (ip), vehicle: Klucel (hydroxypropylcellulose) (HPC)) was 145 % of control [5 of 6 alive], the T/C (dose: 12.5 mg/kg/injection, schedule: Q01DX009 (ip), vehicle: saline sonified) was 141 % of control and the T/C (dose: 15.66 mg/kg/injection, schedule: Q01DX009 (ip), vehicle: saline with Tween-80) was 128 % of control. The T/C (dose: 16.5 mg/kg/injection, schedule: Q01DX009 (ip), vehicle: saline) was 146 % of control, the T/C (dose: 23.5 mg/kg/injection, schedule: Q01DX009 (ip), vehicle: saline with Tween-80) was 140 % of control and the T/C (dose: 25.0 mg/kg/injection, schedule: Q01DX009 (ip), vehicle: Klucel (hydroxypropylcellulose) (HPC)) was 132 % of control. For the same compound, the survivor count (dose: 37.5 mg/kg/injection, schedule: Q01DX009 (ip), vehicle: Klucel (hydroxypropylcellulose) (HPC)) was 3 of 6, the survivor count (dose: 50.0 mg/kg/injection, schedule: Q01DX001 (ip), vehicle: Klucel (hydroxypropylcellulose) (HPC)) was 0 of 6 and the T/C (dose: 50.0 mg/kg/injection, schedule: Q01DX009 (ip), vehicle: Klucel (hydroxypropylcellulose) (HPC)) was 137 % of control. For the same compound, the survivor count (dose: 100.0 mg/kg/injection, schedule: Q01DX001 (ip), vehicle: Klucel (hydroxypropylcellulose) (HPC)) was 0 of 6, the survivor count (dose: 100.0 mg/kg/injection, schedule: Q01DX009 (ip), vehicle: Klucel (hydroxypropylcellulose) (HPC)) was 2 of 6 and the survivor count (dose: 200.0 mg/kg/injection, schedule: Q01DX001 (ip), vehicle: Klucel (hydroxypropylcellulose) (HPC)) was 0 of 6. For the same compound, the survivor count (dose: 400.0 mg/kg/injection, schedule: Q01DX001 (ip), vehicle: Klucel (hydroxypropylcellulose) (HPC)) was 0 of 6.

From PubChem BioAssay AID248 (DTP/NCI, 2004)
